# About 17,000 (5.5%) of roughly 310,000 compounds were called active. The inconclusive results got no clear call from the source; some entries with a clear call stand among them for comparison. The call rests on the fitted dose curve; in most records, active means well fitted inhibition curve with a large enough effect; inconclusive means small, poorly fitted or top-dose-only effect, or effect the other way; inactive means no such curve, though single readings can be large or run the other way. Where the call is inconclusive, the potency comes from a doubtful curve fit.
# Chains of the proteins cited; added tags and fusions are not shown. Lines headed by an entry give the natural chain unless they say otherwise; changes in a name come on top.
# UniProt P51450: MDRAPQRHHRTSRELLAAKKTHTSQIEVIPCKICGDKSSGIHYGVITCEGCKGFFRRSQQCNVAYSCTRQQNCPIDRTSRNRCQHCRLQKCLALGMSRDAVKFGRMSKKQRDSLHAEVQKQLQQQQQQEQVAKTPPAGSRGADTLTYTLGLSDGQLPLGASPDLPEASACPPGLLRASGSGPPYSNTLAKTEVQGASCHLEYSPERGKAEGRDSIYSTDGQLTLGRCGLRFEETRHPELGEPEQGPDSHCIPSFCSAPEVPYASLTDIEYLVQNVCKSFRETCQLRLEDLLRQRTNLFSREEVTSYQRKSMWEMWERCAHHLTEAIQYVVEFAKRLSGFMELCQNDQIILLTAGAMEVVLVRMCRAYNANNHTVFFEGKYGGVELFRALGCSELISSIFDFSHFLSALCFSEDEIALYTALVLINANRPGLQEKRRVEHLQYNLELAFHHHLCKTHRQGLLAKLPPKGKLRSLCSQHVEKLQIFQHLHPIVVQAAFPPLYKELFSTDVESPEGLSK
# Target: Nuclear receptor ROR-gamma (Mus musculus) (UniProt P51450)
# Test: qHTS for inhibitors of ROR gamma transcriptional activity; further: nearly all actives have a fitted effect of over 60% in size
# Settings: Drosophila S2 Gal4-RORgamma UAS-luciferase reporter, 20 h; activity change, negative = inhibition: at 53.6 µM (top of the series)
# In short: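 Compounds are pin-transferred onto Drosophila Schneider cells expressing a copper-inducible Gal4–ROR gamma transactivation domain fusion. After 1 hr, copper sulfate is added to 700 uM final; luciferase is read 20 hr later.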
# On the % scale 0 is the no-effect control and ±100 the full control effect; potency means the concentration at half of the fitted maximal effect.
Structure (SMILES),Potency,"activity change, negative = inhibition"
COc1cccc2c(SCC(=O)N/N=C/c3ccccc3)cc(C)nc12,"inconclusive: 7.08 µM [activator, full curve]",
CN(C)C(=O)CN1C(=O)NC2(CCc3ccccc32)C1=O (stereo not drawn),,inactive: 0.882%
O=C(COC(=O)c1ccccn1)Nc1nc(-c2ccccc2)cs1,"inconclusive: 14.1 µM [activator, single point]",
O=C(Nc1ccc(C(F)(F)F)cc1)c1ccccc1Br,"inconclusive: 25.1 µM [activator, single point]",
Cc1cc(C)c2c(-n3cccc3)c(C(=O)NNS(=O)(=O)c3ccc(Cl)cc3)sc2n1,"inconclusive: 8.91 µM [inhibitor, partial curve]",
O=C(Nc1nnc(-c2ccc(Cl)cc2)o1)NC1CCCCC1,"inconclusive: 1.12 µM [inhibitor, full curve, poor fit]",
Cc1ccccc1N=C/C=C1\N(C)c2ccccc2C1(C)C,"inconclusive: 35.5 µM [inhibitor, single point]",
O=C(Cc1nc2ccccc2[nH]c1=O)c1ccccc1,"inconclusive: 11.2 µM [activator, partial curve]",
Cc1cc(C)c(C2=Nn3c(C)nnc3SC2C)cc1C (stereo not drawn),"inconclusive: 20 µM [activator, single point]",
Cc1cc(C(=O)O)ccc1N/C=C1\CCCC(C)C1=O (stereo not drawn),active: 3.55 µM,
O=C1C2CCCN2C(=O)N1CCN1CCN(CCO)CC1 (stereo not drawn),,inactive: -5.39%
COC(=O)C1=C(C)N(C)C(=O)NC1c1ccc(O)c(OC)c1 (stereo not drawn),"inconclusive: 3.55 µM [activator, partial curve, poor fit]",
C/C=C1\COC(C(=O)NCCCN2CCCC2=O)(C(F)(F)F)C=C1C=C(C)C (stereo not drawn),"inconclusive: 25.1 µM [inhibitor, single point]",
CC1(C)CC(=O)C2=C(C1)NC(SCC(=O)Nc1ccccc1)=C(C#N)C2c1ccco1 (stereo not drawn),"inconclusive: 11.2 µM [activator, partial curve]",
Cc1ccsc1/C=N/NC(=O)CNC(=O)c1ccc(S(=O)(=O)N(C)C)cc1,,inactive: 9.03%
O=c1c2cc(Br)ccc2nc(-c2cccc(Cl)c2)n1O,active: 12.6 µM,
O=C(c1cc2nc(-c3ccco3)cc(C(F)(F)F)n2n1)N1CCN(c2ccc(F)cc2)CC1,"inconclusive: 6.31 µM [inhibitor, single point]",
O=C1CCc2cc(S(=O)(=O)NC(Cc3ccccc3)C(=O)NCC3CCCO3)ccc2N1 (stereo not drawn),active: 7.94 µM,
COc1ccc(NC(=O)c2cccs2)cc1O,"inconclusive: 5.62 µM [activator, single point]",
O=C(O)COc1ccc(Br)cc1/C=N\Nc1ccccn1,active: 2.24 µM,
CCCCOC(=O)c1ccc(NC(=O)/C=C/c2cccs2)cc1,"inconclusive: 12.6 µM [activator, partial curve]",
NC(=O)C1CCN(Cc2nc3cc(C(F)(F)F)ccc3c(=O)[nH]2)CC1,,inactive: 12%
CN1CCN(c2ccc(NC(=S)NC(=O)/C=C/c3ccco3)cc2)CC1,active: 11.2 µM,
c1ccc(-c2nn3c(-c4ccco4)nnc3s2)nc1,,inactive: 17.4%

Structure (SMILES),Potency,"activity change, negative = inhibition"
CC(=O)NC1CCCc2c1cnn2-c1ccc(C(C)(C)C)cc1 (stereo not drawn),"inconclusive: 12.6 µM [activator, partial curve]",
COc1ccc(-c2[nH]ncc2CN(C)Cc2cccnc2)c(OC)c1,,inactive: 0.851%
CCN(Cc1ccccc1)C(=O)c1ccc(C(=O)N(CC)Cc2ccccc2)cc1,"inconclusive: 15.8 µM [activator, partial curve]",
COc1cccc(C(=O)/C=C/Nc2ccc(S(=O)(=O)Nc3cnc4ccccc4n3)cc2)c1,"inconclusive: 35.5 µM [inhibitor, single point]",
CCN1C(=O)C2(C(C#N)=C(N)Oc3c2c(C)nn3-c2ccccc2)c2ccccc21 (stereo not drawn),"inconclusive: 12.6 µM [inhibitor, single point]",
CCN1CCN(c2cc(C)nc(-c3ccccc3O)n2)CC1,,inactive: -23.1%
Nc1nn(S(=O)(=O)c2ccccc2)cc1-c1ccc([N+](=O)[O-])cc1,"inconclusive: 31.6 µM [inhibitor, single point]",
O=C(CCCn1c(SCc2cccc([N+](=O)[O-])c2)nc2ccccc2c1=O)NCC1CCCO1 (stereo not drawn),"inconclusive: 8.91 µM [activator, partial curve]",
Fc1cc2[nH]cnc2cc1Cl,,inactive: -3.51%
COC(=O)CN(c1nc(C)c(Br)c(OC)n1)S(=O)(=O)c1ccccc1,,inactive: 8.89%
COc1ccc(CC2S/C(=N/N=C/c3ccc(O)cc3)NC2=O)cc1 (stereo not drawn),,inactive: -32.5%
CC(/C=C/c1ccccc1)=N\NC(=O)c1ccc2c(c1)OCCO2,active: 12.6 µM,
S=C(Nc1ccc2[nH]ccc2c1)NC1CCCCC1,active: 11.2 µM,
Cc1ncc(CSc2nc3ccccc3[nH]2)c(N)n1,"inconclusive: 35.5 µM [activator, single point]",
O=C(NCCc1ccc(Cl)cc1Cl)c1cc([N+](=O)[O-])c[nH]c1=O,"inconclusive: 12.6 µM [activator, partial curve]",
COC(=O)c1c(NC(=O)CC2SCC(C(=O)OC)NC2=O)sc2c1CCCC2 (stereo not drawn),,inactive: 0.185%
O=C(CSc1nnc(-c2ccc3c(c2)OCO3)o1)Nc1ncc(C(F)(F)F)cc1Cl,active: 3.98 µM,
O=C(N/N=C/c1cccc2ccccc12)c1cccnc1,,inactive: -4.04%
CC(C)c1ccc2oc(-c3ccc(N)cc3)nc2c1,"inconclusive: 15.8 µM [inhibitor, single point]",
CCOC(=O)c1c2c3c(cccc3n(C)c1=O)C(=O)c1ccccc1-2,,inactive: -17.5%
CN(C)c1cccc(C(=O)N2CCC(n3nccc3NC(=O)C3CCOC3)CC2)c1 (stereo not drawn),,inactive: -3.44%
Cc1sc(=NC(=O)c2ccco2)n(C)c1-c1ccc(Cl)cc1,"inconclusive: 25.1 µM [activator, partial curve, poor fit]",
COc1ccc(/C=N/Nc2ccc([N+](=O)[O-])cc2)cc1O,"inconclusive: 3.16 µM [activator, full curve, poor fit]",
CCN(Cc1ccccc1)C(=O)CCc1nnc(CCCc2ccccc2)o1,"inconclusive: 35.5 µM [activator, single point]",

# Ten entries from above, reformatted:
Structure (SMILES)	Potency	activity change, negative = inhibition
O=C(COC(=O)c1ccccn1)Nc1nc(-c2ccccc2)cs1	inconclusive: 14.1 µM [activator, single point]	
O=C(Nc1ccc(C(F)(F)F)cc1)c1ccccc1Br	inconclusive: 25.1 µM [activator, single point]	
Cc1cc(C)c2c(-n3cccc3)c(C(=O)NNS(=O)(=O)c3ccc(Cl)cc3)sc2n1	inconclusive: 8.91 µM [inhibitor, partial curve]	
O=C(Nc1nnc(-c2ccc(Cl)cc2)o1)NC1CCCCC1	inconclusive: 1.12 µM [inhibitor, full curve, poor fit]	
Cc1ccccc1N=C/C=C1\N(C)c2ccccc2C1(C)C	inconclusive: 35.5 µM [inhibitor, single point]	
O=C(Cc1nc2ccccc2[nH]c1=O)c1ccccc1	inconclusive: 11.2 µM [activator, partial curve]	
Cc1cc(C)c(C2=Nn3c(C)nnc3SC2C)cc1C (stereo not drawn)	inconclusive: 20 µM [activator, single point]	
Cc1cc(C(=O)O)ccc1N/C=C1\CCCC(C)C1=O (stereo not drawn)	active: 3.55 µM	
O=C1C2CCCN2C(=O)N1CCN1CCN(CCO)CC1 (stereo not drawn)		inactive: -5.39%
COC(=O)C1=C(C)N(C)C(=O)NC1c1ccc(O)c(OC)c1 (stereo not drawn)	inconclusive: 3.55 µM [activator, partial curve, poor fit]	

# From PubChem BioAssay AID2551 (National Center for Advancing Translational Sciences (NCATS), 2010)
